Tags and fusion partners may be left off the protein sequences shown.
Experiments:
EstR [1] = molecular target: T1, EstR (UniProt A9CLK2); assay: DNase I footprinting; settings: footprinting: same with 0.1 mM DTT, 5 ug/ml calf thymus DNA, 500 ng poly(dI-dC), room temperature, recombinant protein, residues 1-155, label: 5'-32P on BT1574 strand, probe letters rebuilt from the primers and the genome
T1 sequence (looked up): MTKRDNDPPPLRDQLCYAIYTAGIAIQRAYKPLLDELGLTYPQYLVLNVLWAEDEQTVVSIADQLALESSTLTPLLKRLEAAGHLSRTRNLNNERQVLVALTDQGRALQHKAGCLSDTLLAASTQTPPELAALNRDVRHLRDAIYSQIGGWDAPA

EstR [2] = molecular target: T1, EstR; assay: competition with a labelled probe; settings: cold 314-bp promoter fragment competes with labeled fragment; EMSA: 20 mM Tris-HCl pH 7.0, 50 mM KCl, 50 ug/ml BSA, 1 mM EDTA, 5% glycerol, 1 mM DTT, 25 C 15 min, 3 fmol probe in 25 ul; recombinant protein; residues 1-155; label: 5'-32P on BT1574 strand; probe letters rebuilt from the primers and the genome
EstR [3] = molecular target: T1, EstR; assay: EMSA; settings: complex seen at 25 nM EstR, maximal at 100 nM, 1 mM DTT, EMSA: 20 mM Tris-HCl pH 7.0, 50 mM KCl, 50 ug/ml BSA, 1 mM EDTA, 5% glycerol, 25 C 15 min, 3 fmol probe in 25 ul, recombinant protein, residues 1-155, label: 5'-32P on BT1574 strand, probe letters rebuilt from the primers and the genome

Measured: binding result

CTGGATAGCGATGCCTGCGGTATAAATAGCATAGCAGAGCTGGTCGCGCAGGGGCGGGGGATCATTATCGCGTTTGGTCATTCTGAACTCCTGTAGACACCAATATAACCTAAATTATCACGAAAACCAATATCGCGATAAGAATCATATTGACGCGTGTCCGAAGATATGAAAACCTATAGTTATCGCGATAACAGTTATCGCATTAAGAGAGAGGAGAGCATCATGTCACGCAAGTCCATCACTACCATTTCCGCAATCGCAACTGCAGCCTCGCTGTCGGTTGCCCTGCCGGCAGCGAATGCAGCCGACAC (double strand) [estR-estC promoter fragment, 314 bp]
binds: EstR [1]; site OI, +16 to -18 of estC promoter, protection at 50 nM EstR | EstR [1]; site OII, -46 to -82 of estC promoter, protection at 75 nM EstR | EstR [2] | EstR [3]

Reference: publication PMC5201249, “Agrobacterium tumefaciens estC, Encoding an Enzyme Containing Esterase Activity, Is Regulated by EstR, a Regulator in the MarR Family” (PLoS ONE, 2016)
